Experimental data from paper PMC9278983, “Biochemical and Structural Characterization of Thermostable GH159 Glycoside Hydrolases Exhibiting α-L-Arabinofuranosidase Activity” (Frontiers in Molecular Biosciences, 2022).
These are yes or no findings as the source states them, for the method shown.

Biological target: Ch_Gaf159A (Caldicellulosiruptor hydrothermalis) (UniProt E4QB49)
Test: SEC; size-exclusion chromatography of purified Ch_Gaf159A; conditions not given; both purified

B1: Ch_Gaf159A (enzyme, UniProt E4QB49 2-311)
chain: PRPPAPLFRDPIYDGAADPTIIYNHLEKSWWILYTNRRANQKLPGKAFMHGTDIGIAESKDGGRTWFYRGTIELQYGRGRNTFWAPEVIFYEGEYHMYVSFVPGVPQDWNAERYILYYKSKNLWDWEFVCKLELSSNKVIDACVFQMPDGTFRMWYKDEADHSYIYAAESNNLKDWKILGPALTDRPQEGPNVFWWKSKYWMITDPWCGLGVYSSEDATAWHRHENILDRPGKREDDGQIGHHADVLVIDDETAYIFYFTHPEGMEGTEEFWKDSKYWRTSLQVAKLEYVDGKVVCDRDKEFDFYLPDLF
binding: no binding
